Experimental findings from the supplement of paper PMC12578635 are described below.

Some of the results follow. Rule as the data show it: active = 150% or more and inactive = the rest. Most values come without repeats; read them as rough.

The subject of this experiment is Staphylococcus aureus JE2-lux inside RAW 264.7 macrophages. The experiment is described as follows: intracellular bacterial bioluminescence relative to DMSO vehicle; higher = higher intracellular bacterial metabolic activity. Particulars: 10 µM; treatment time 4 h; gentamicin 50 µg/ml.
Regarding `C#CCn1/c(=N/C(=O)c2cccc([N+](=O)[O-])c2)sc2cccc(F)c21`, the intracellular bacterial bioluminescence is inactive: 109%. As for `COC(=O)c1sc(-c2ccccc2)cc1NC(=O)c1ccc([N+](=O)[O-])s1`, the intracellular bacterial bioluminescence was inactive: 100%.

Turning to `CCCCSc1nc2c(cnn2-c2ccc(C)c(C)c2)c(=O)[nH]1`, the intracellular bacterial bioluminescence was inactive: 83%. As to `O=C(CN1C(=O)c2ccccc2S1(=O)=O)NCc1ccc2c(c1)OCO2`, the intracellular bacterial bioluminescence is inactive: 125%. On to `Cc1nc(OCC(=O)NC(C)(C)C)c2c(-c3cccc(F)c3)noc2n1`, for which the intracellular bacterial bioluminescence was inactive: 109%. For the compound `Cc1cc(NC2CCCC2)n2ncc(-c3ccc(F)cc3)c2n1`, the intracellular bacterial bioluminescence is inactive: 101%.

Take `Cc1nc(SCC(=O)NCc2ccco2)[nH]c(=O)c1C`: the intracellular bacterial bioluminescence is inactive: 111%.

For `O=C(NC(=O)c1ccc(F)cc1)Nc1ccncc1`, the intracellular bacterial bioluminescence was inactive: 110%. To `CCn1cc(SCC(=O)Nc2ccc(OC)cc2)c2ccccc21` belongs inactive: 81.9%. As to `COc1ccc(CN2C(=O)c3cccc4cccc(c34)C2=O)cc1`, the intracellular bacterial bioluminescence was inactive: 122%.

As to `O=C(Nc1ccc(F)cc1F)c1cccnc1-c1ccsc1`, the intracellular bacterial bioluminescence is inactive: 66.1%. For `CCOC(=O)c1cc2c(=O)n3ccccc3nc2n(CCc2ccccc2)/c1=N\C(=O)c1ccccc1`, the intracellular bacterial bioluminescence is inactive: 63.1%.

Regarding `CCOC(=O)c1ccc(/N=c2\oc3ccc(OC)cc3cc2C(N)=O)cc1`, the intracellular bacterial bioluminescence is inactive: 110%.

Regarding `COc1ccccc1CCNC(=O)C(=O)NCC1OCCN1S(=O)(=O)c1ccc([N+](=O)[O-])cc1` (configuration not stated), the intracellular bacterial bioluminescence is inactive: 57.3%. To `Cc1ccc2nnc(-c3ccccc3)c(C(=O)Nc3ccc(F)cc3)c2c1` belongs inactive: 117%. In the case of `O=C(CSc1ncnc2c1sc1nc3ccccc3cc12)c1ccc2c(c1)OCCO2`, the intracellular bacterial bioluminescence was inactive: 108%. With `Cc1cc2c(=O)n(Cc3ccco3)c(SCC(=O)Nc3ccc4c(c3)OCO4)nc2s1`, the intracellular bacterial bioluminescence was inactive: 91.6%.

Take `CN(C)CCCNc1ncnc2sc3c(c12)CCCC3`: the intracellular bacterial bioluminescence is inactive: 120%. On to `CC1CN(C(=O)c2ncoc2-c2ccc(F)cc2)CC(C)O1` (configuration not stated), for which the intracellular bacterial bioluminescence is inactive: 87.5%. Regarding `O=C(O)c1ccc(C(=O)NCC2CCCO2)c(C(=O)O)c1` (configuration not stated), the intracellular bacterial bioluminescence is inactive: 120%. Take `O=C(Nc1cc(-c2cccs2)nnc1O)C1CCC1`: the intracellular bacterial bioluminescence is inactive: 25%. To `CCNC(=O)c1n[nH]c2c1CCc1cc(OC)ccc1-2` belongs inactive: 78.9%. In the case of `Cc1ccc(N2CC(C(=O)N3CCN(c4ncnc5c4nnn5-c4ccc(C)cc4)CC3)CC2=O)cc1` (configuration not stated), the intracellular bacterial bioluminescence is inactive: 91.7%. For `O=C(O)CCn1nc(Nc2ccccc2)n(-c2ccccc2)c1=S` the value was inactive: 100%.

As to `COCCn1c(SCC(=O)N2CCc3ccccc32)nc2cccnc21`, the intracellular bacterial bioluminescence was inactive: 68.3%. To `COc1ccc2nc(NC(=O)CSc3nnc4nc(C)cc(C)n34)sc2c1` belongs inactive: 67.6%. Turning to `CSc1ccc(NC(=O)NCCc2ccncc2)cc1`, the intracellular bacterial bioluminescence is inactive: 96.3%. For `CC(C)c1cc(N2CCN(C(=O)c3ccco3)CC2)n2c(nc3ccccc32)c1C#N` the value was inactive: 96.3%.

As for `COc1cccc(-c2cc3nc(C)c(Cl)c(O)n3n2)c1`, the intracellular bacterial bioluminescence is inactive: 122%. On to `COCCCNc1c(-c2ccc(C)cc2)nc2sc3cc(C)ccc3n12`, for which the intracellular bacterial bioluminescence was inactive: 97%. In the case of `O=C1NC2=C(C(=O)N(CCO)C2)C(c2ccc(OCc3ccccc3)cc2)N1` (configuration not stated), the intracellular bacterial bioluminescence was inactive: 100%. For the compound `CC(=O)C(C)n1c(=O)c2c(nc3n(-c4ccc(F)cc4)c(-c4ccccc4)cn23)n(C)c1=O` (configuration not stated), the intracellular bacterial bioluminescence was inactive: 91.4%. For the compound `Cc1cc(-c2csc(S(=O)(=O)Nc3cccc(Br)c3)c2)on1`, the intracellular bacterial bioluminescence is inactive: 22.8%. `CC12CC(NC(=O)N1c1cccc(C(=O)O)c1)c1cc(Br)ccc1O2` (configuration not stated): the intracellular bacterial bioluminescence was inactive: 115%.

In the case of `Cc1c(C(=O)Nc2c(C(=O)Nc3ccc4c(c3)OCCO4)oc3ccccc23)cccc1[N+](=O)[O-]`, the intracellular bacterial bioluminescence was inactive: 72.1%. For the compound `O=C(Cn1cnc2c(nnn2Cc2ccc(F)cc2)c1=O)Nc1ccccc1C(F)(F)F`, the intracellular bacterial bioluminescence is inactive: 76.2%. To `COc1ccc(-c2n[nH]c3nc(-c4ccc(Cl)cc4)cc(C(=O)NCc4ccc(C)cc4)c23)cc1` belongs active: 175%; to `Cc1nn(Cc2c(F)cccc2Cl)c(=O)c2noc(C)c12`, inactive: 72.8%; to `C=CCn1c(SCC(=O)Nc2sc3c(c2C(=O)OCC)CCC3)nc2ccccc2c1=O`, inactive: 101%.

As for `CCOC(=O)c1c(C)oc2ncn(Cc3ccccc3)c(=O)c12`, the intracellular bacterial bioluminescence was inactive: 79.6%. As to `COc1ccccc1N1C(=O)N(c2ccccc2Cl)C2CS(=O)(=O)CC21` (configuration not stated), the intracellular bacterial bioluminescence is inactive: 104%.

Take `N#Cc1cc2cc3c(cc2nc1N1CCCN(C(=O)Nc2ccc(Cl)cc2)CC1)OCO3`: the intracellular bacterial bioluminescence was inactive: 74.7%. For `COc1cc(NC(=O)CSC2=NS(=O)(=O)c3ccccc3N2)cc(OC)c1` the value was inactive: 98.1%; for `O=C(NNc1nc2c(Cl)cccc2s1)C1COc2ccccc2O1` (configuration not stated), inactive: 69.9%. Turning to `Cn1c(=O)c2c(SCC(=O)NCc3ccco3)ccnc2n(C)c1=O`, the intracellular bacterial bioluminescence was inactive: 43.7%. On to `COc1cc2c(cc1OC)C(COc1ccc([N+](=O)[O-])cc1)N(C(=S)NC(C)(C)C)CC2` (configuration not stated), for which the intracellular bacterial bioluminescence is inactive: 63.8%. Regarding `COc1ccc(CCN2CCc3c(C)c(C#N)c4nc5ccccc5n4c32)cc1OC`, the intracellular bacterial bioluminescence was inactive: 52.3%. As for `CCN(CCNC(=O)c1ccc2nc(N3CCN(c4ncccn4)CC3)ccc2n1)c1cccc(C)c1`, the intracellular bacterial bioluminescence is inactive: 104%. Take `CC(C)c1cc(C(=O)NC(c2ccncc2)c2ccc(Cl)cc2)n(C)n1` (configuration not stated): the intracellular bacterial bioluminescence was inactive: 106%. In the case of `O=C(NC1CC1)c1ccc(S(=O)(=O)N2CCC(NC(=O)c3cccc(F)c3)CC2)cc1`, the intracellular bacterial bioluminescence is inactive: 104%. Take `Cc1cc2nc(NC(=O)Nc3cccc(F)c3)sc2cc1C`: the intracellular bacterial bioluminescence is inactive: 78.9%. As for `CC1CCCN(c2ccc(NS(=O)(=O)c3ccc4[nH]c(=O)[nH]c(=O)c4c3)cc2)C1` (configuration not stated), the intracellular bacterial bioluminescence was inactive: 113%. `CC1=NNC(=O)/C1=N\Nc1ccc(S(=O)(=O)N2CCOCC2)cc1`: the intracellular bacterial bioluminescence is inactive: 68.4%. Regarding `O=C(CSc1ncnc2c1oc1ccccc12)Nc1ccc(Br)cc1`, the intracellular bacterial bioluminescence was inactive: 79%.

As for `CC1Cc2ccccc2N1C(=O)CCn1c(=O)oc2ccccc21` (configuration not stated), the intracellular bacterial bioluminescence is inactive: 75.9%. Regarding `COc1ccccc1C(=O)n1nc(-c2ccccc2Cl)nc1N`, the intracellular bacterial bioluminescence was inactive: 136%.

As to `Cc1sc2nc(SC/C=C/c3ccccc3)[nH]c(=O)c2c1C`, the intracellular bacterial bioluminescence is inactive: 97.3%. On to `Cc1cc(Nc2ccc(C)c(F)c2)n2nc(Cc3cccc(F)c3)nc2n1`, for which the intracellular bacterial bioluminescence is inactive: 48.5%. Turning to `COc1cccc(-n2c(C)c(C)c3c2ncn2nc(-c4ccccc4Br)nc32)c1`, the intracellular bacterial bioluminescence was inactive: 96.3%. For `Cc1ccc(-c2cnc3c(-c4ccc(Cl)cc4)cnn3c2N)cc1` the value was inactive: 119%; for `CC12CC(NC(=O)N1Cc1ccccc1)c1ccccc1O2` (configuration not stated), inactive: 95.8%. With `CCn1c(=O)[nH]c(=O)c2cnc(-c3ccc(OC)cc3)nc21`, the intracellular bacterial bioluminescence is inactive: 104%. Take `CCOC(=O)c1ccc(CC2SC(=N)NC2=O)cc1` (configuration not stated): the intracellular bacterial bioluminescence is inactive: 128%. As for `COc1ccc(C(NC(=O)c2cccc3c(C)c(C)[nH]c23)c2ccncc2)cc1` (configuration not stated), the intracellular bacterial bioluminescence is inactive: 82.7%. `Oc1nc(SCc2c(F)cccc2Cl)nc2[nH]cnc12`: the intracellular bacterial bioluminescence is inactive: 114%. Regarding `COC(=O)c1sc2nc(N)c(C#N)c(-c3ccco3)c2c1N`, the intracellular bacterial bioluminescence is inactive: 114%. To `Cc1cccc(-c2nc(N)n(C(=O)Cc3ccc(Cl)cc3)n2)c1` belongs inactive: 118%. For `COc1cccc(-c2csc(/C(C#N)=C/Nc3cc(Cl)ccc3OC)n2)c1`, the intracellular bacterial bioluminescence was inactive: 98.1%. With `CC(=O)Nc1ccc(S(=O)(=O)N2CCN=C2SCc2ccc([N+](=O)[O-])cc2)cc1`, the intracellular bacterial bioluminescence is inactive: 96.9%.

Consider `CCCCC(=O)N1CCN(c2nc3ccccc3cc2-c2noc(C)n2)CC1`, for which the intracellular bacterial bioluminescence is inactive: 131%. Consider `COc1ccc(-n2nnc3c(SCC(=O)NCC4CCCO4)ncnc32)cc1` (configuration not stated), for which the intracellular bacterial bioluminescence is inactive: 82.1%. On to `O=C(CCN1C(=O)c2cccc3cccc(c23)C1=O)NC1CCS(=O)(=O)C1` (configuration not stated), for which the intracellular bacterial bioluminescence is inactive: 113%. Consider `CC(=O)c1ccc(Nc2nc(C)nc3c2c(C)c(C)n3-c2ccc(F)cc2)cc1`, for which the intracellular bacterial bioluminescence is inactive: 90.1%.

In the case of `Cc1nc2c(ccc3nc(NC(=O)c4cc(-c5cccs5)nc5ccccc45)sc32)s1`, the intracellular bacterial bioluminescence was inactive: 96.8%. On to `O=C(CSc1nc2c(cnn2-c2ccc(F)cc2)c(=O)[nH]1)N1CCOCC1`, for which the intracellular bacterial bioluminescence is inactive: 107%. With `CCOc1ccc(C(=O)NC2CC3CCCC(C2)N3C(=O)Nc2ccc(F)cc2)cc1` (configuration not stated), the intracellular bacterial bioluminescence is inactive: 78.3%. For the compound `COc1ccc(-c2nnc3ccc(SCC(=O)Nc4c(C)cc(C)cc4C)nn23)cc1`, the intracellular bacterial bioluminescence is inactive: 45.5%. `O=C(Nc1nc2ccc3ccccc3c2s1)c1c(F)cccc1F`: the intracellular bacterial bioluminescence is inactive: 68.5%. For the compound `COc1ccc2c(Cl)c(C(=O)NCCC3=CCCCC3)sc2c1`, the intracellular bacterial bioluminescence is inactive: 112%. On to `CCn1c(SCC(=O)Nc2ccccc2C(=O)OC)nc2cccnc21`, for which the intracellular bacterial bioluminescence is inactive: 72%.

In the case of `Cc1ccc(S(=O)(=O)Nc2cc(C(=O)N(C)Cc3ccccc3)cnc2N2CCNCC2)cc1C`, the intracellular bacterial bioluminescence was inactive: 56.9%. For `CC(NC(=O)c1ccccc1)c1nc(-c2ccc3c(c2)nnn3C)no1` (configuration not stated) the value was inactive: 98.9%; for `CC(=O)NC(=O)c1cc2c(ccc3ccccc32)o/c1=N\c1ccc(F)cc1F`, inactive: 95.5%; for `Cc1oc(-c2ccccc2Cl)nc1CS(=O)(=O)CC(=O)NCc1ccc(F)cc1`, inactive: 65.3%.

`COc1ccc(OC)c(NC(=O)c2sc3[nH]c(=O)c(C(=O)O)cc3c2N)c1`: the intracellular bacterial bioluminescence is inactive: 101%. On to `Cc1ccc(S(=O)(=O)Nc2ccc3nncn3n2)cc1`, for which the intracellular bacterial bioluminescence was inactive: 73.7%. On to `CCCCN1CCn2c(nc3cc(NC(=O)NC4CCCCC4)ccc32)C1`, for which the intracellular bacterial bioluminescence was inactive: 46.8%. As for `O=C(C1=C(O)C(=O)N(Cc2cccnc2)C1c1cccc(Br)c1)c1cccs1` (configuration not stated), the intracellular bacterial bioluminescence is inactive: 139%.

For `COc1ccc(C(=O)NC2CCN(C(=O)NCc3ccccc3)CC2)cc1`, the intracellular bacterial bioluminescence is inactive: 89.6%. Regarding `CCOc1cccc2c1OC(c1cccnc1)N1N=C(c3cccs3)CC21` (configuration not stated), the intracellular bacterial bioluminescence was inactive: 56.8%.

Take `O=C(c1ccc2c(c1)OCCO2)C1CCN(C(=S)Nc2ccc(F)cc2)CC1`: the intracellular bacterial bioluminescence is inactive: 67%. For `COc1ccc(NC(C)=O)cc1NC(=O)c1cn(C)nc1OC` the value was inactive: 114%.
